# Measurements published in patent publication EP2045266A1, “Methods for treating and diagnosing a cancer secreting cath-D or Alzheimer's disease” (priority 2007, dated 2009).
# Sequences of proteins named here, by UniProt entry; tags and fusion partners are left off. A change or cut given only in a name is not applied to a line headed by its entry.
# UniProt Q07954: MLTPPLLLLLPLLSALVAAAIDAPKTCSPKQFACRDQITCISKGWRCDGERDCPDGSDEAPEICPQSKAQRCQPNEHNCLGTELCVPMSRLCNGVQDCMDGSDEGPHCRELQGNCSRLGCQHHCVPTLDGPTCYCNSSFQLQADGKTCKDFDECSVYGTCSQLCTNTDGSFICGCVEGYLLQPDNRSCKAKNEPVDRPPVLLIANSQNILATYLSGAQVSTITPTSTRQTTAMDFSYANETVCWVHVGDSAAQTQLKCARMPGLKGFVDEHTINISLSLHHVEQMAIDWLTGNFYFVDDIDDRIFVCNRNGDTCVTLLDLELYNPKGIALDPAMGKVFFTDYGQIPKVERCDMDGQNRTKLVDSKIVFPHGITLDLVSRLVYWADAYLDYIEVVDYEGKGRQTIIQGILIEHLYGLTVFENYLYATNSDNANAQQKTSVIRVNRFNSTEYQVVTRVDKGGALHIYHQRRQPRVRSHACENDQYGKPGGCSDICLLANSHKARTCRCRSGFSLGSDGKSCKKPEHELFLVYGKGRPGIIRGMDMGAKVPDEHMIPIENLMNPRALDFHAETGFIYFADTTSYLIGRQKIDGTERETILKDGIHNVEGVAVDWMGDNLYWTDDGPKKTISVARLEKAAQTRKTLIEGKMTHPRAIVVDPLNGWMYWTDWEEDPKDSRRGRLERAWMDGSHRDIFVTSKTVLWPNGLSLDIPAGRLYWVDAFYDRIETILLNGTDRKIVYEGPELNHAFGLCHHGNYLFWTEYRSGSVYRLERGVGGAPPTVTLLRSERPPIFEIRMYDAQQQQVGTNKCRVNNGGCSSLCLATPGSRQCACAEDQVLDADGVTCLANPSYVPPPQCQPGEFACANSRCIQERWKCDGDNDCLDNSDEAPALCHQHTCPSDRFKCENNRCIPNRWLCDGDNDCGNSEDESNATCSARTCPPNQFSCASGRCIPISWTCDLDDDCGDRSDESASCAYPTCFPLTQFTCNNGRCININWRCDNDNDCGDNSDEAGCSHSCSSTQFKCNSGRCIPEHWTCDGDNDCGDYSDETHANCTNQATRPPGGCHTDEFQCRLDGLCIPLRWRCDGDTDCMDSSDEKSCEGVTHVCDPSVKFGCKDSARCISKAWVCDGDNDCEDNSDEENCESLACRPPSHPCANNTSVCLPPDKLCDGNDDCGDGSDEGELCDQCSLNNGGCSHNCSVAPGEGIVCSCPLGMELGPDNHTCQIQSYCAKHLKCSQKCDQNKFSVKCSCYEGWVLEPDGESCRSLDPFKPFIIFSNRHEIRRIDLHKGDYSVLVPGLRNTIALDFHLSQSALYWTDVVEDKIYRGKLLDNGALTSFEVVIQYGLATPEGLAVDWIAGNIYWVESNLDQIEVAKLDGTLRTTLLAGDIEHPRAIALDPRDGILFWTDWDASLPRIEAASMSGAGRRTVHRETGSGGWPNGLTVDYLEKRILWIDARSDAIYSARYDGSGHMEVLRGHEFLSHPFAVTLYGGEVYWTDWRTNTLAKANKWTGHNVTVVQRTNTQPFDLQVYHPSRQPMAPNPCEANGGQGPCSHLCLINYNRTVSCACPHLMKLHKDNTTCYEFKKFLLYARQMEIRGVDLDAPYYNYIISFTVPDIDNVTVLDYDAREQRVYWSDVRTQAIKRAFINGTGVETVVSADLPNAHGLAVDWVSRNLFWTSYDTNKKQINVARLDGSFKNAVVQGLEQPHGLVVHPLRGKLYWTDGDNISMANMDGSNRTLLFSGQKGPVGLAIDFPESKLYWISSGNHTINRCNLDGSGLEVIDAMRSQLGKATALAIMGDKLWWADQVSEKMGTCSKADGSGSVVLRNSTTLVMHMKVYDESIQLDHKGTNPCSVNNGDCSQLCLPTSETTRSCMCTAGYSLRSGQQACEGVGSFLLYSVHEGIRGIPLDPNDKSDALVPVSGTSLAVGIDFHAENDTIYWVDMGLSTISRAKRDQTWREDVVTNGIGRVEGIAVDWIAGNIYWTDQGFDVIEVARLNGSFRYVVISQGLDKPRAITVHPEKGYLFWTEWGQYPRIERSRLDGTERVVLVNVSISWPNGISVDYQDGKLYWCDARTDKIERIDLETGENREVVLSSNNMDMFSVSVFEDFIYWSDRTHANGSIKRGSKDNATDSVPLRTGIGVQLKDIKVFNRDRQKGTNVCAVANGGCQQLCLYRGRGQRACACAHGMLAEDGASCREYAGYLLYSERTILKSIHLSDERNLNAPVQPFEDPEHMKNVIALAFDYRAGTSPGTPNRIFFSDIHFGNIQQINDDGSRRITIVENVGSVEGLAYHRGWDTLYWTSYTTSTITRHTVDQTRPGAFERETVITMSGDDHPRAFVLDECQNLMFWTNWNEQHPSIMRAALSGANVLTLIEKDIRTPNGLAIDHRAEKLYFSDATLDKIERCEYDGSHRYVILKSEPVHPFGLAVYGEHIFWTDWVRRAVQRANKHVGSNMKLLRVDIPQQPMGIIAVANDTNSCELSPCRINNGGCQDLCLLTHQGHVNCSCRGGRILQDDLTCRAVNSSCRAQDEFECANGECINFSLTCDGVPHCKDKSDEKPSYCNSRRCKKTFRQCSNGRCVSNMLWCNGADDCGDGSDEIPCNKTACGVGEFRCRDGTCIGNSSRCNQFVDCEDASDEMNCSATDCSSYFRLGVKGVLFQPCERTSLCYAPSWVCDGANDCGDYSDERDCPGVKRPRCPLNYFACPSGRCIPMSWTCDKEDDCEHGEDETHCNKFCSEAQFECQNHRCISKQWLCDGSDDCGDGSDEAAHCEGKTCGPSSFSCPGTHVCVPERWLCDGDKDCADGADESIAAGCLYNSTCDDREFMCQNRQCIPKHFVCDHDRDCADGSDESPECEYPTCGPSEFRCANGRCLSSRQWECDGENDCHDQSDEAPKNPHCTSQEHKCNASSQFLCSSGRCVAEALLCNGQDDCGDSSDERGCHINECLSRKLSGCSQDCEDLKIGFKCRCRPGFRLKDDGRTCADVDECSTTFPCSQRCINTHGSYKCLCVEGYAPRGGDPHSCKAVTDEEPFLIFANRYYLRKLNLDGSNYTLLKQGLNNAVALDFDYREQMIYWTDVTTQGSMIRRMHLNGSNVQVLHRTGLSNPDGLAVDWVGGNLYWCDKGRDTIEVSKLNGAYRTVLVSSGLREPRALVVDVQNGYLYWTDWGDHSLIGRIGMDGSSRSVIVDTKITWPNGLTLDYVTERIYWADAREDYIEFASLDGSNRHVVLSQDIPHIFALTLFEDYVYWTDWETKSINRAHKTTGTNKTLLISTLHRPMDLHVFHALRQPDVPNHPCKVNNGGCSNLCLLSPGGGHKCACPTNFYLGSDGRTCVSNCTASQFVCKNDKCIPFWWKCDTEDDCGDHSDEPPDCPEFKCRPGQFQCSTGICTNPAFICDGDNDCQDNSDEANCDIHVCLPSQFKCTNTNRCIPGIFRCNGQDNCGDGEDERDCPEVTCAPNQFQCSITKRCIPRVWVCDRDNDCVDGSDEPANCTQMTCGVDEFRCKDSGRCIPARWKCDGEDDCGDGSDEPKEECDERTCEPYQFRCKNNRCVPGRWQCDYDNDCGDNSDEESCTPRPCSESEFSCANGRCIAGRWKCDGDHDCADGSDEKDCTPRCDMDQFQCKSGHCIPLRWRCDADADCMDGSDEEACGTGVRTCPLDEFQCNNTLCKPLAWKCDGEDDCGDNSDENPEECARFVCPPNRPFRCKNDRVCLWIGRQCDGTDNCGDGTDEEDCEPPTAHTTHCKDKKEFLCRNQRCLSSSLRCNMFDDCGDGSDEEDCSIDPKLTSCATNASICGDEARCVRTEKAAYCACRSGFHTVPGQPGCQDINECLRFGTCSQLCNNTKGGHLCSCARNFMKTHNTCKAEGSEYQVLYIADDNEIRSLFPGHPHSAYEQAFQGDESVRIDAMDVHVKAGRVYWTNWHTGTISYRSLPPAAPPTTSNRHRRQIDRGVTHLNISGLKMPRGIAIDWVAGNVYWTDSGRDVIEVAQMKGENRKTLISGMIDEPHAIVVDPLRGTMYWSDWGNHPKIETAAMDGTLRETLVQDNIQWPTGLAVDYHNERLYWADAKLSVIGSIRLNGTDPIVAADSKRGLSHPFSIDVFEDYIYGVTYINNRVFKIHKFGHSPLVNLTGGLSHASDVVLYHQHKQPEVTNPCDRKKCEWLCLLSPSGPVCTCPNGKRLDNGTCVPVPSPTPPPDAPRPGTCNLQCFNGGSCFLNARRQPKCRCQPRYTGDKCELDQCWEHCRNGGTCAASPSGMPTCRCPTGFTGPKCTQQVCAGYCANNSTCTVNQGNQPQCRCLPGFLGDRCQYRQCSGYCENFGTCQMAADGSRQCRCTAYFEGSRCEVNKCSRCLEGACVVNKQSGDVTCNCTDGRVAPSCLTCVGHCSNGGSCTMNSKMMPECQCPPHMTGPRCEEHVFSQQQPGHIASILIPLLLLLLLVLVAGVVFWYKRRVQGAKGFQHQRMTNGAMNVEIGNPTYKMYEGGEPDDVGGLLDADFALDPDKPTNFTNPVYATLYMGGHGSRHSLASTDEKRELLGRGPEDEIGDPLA
# UniProt P07339: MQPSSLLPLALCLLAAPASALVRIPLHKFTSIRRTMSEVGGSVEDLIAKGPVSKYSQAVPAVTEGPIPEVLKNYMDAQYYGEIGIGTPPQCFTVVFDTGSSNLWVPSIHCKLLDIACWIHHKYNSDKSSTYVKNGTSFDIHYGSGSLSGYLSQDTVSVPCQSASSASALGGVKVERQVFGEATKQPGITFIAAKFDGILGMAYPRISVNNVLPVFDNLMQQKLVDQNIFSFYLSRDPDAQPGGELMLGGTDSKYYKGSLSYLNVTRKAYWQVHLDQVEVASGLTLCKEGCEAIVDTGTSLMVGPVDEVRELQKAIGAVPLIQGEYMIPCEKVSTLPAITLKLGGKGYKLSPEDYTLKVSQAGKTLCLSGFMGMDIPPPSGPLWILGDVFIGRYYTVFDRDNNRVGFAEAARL
# No constants are given. Whether binding was seen depends on the method and setting. Binding seen in cells or lysates may run through a third protein. A result given as binding can be weak or reduced; the word gives no strength.
# Target: LRP1-IV-HA mini-receptor (UniProt Q07954)
# Experiment: co-immunoprecipitation from co-transfected COS cells, anti-LRP1β IP, anti-cath-D blot
substance,measurement,value
"D231N cath-D (catalytically inactive mutant of human cath-D, precursor form) (from UniProt P07339) (enzyme)",binding,binds
